Our source for the binding values is paper PMC6451337, “The Toxoplasma gondii dense granule protein TgGRA3 interacts with host Golgi and dysregulates anterograde transport” (Biology Open, 2019).

The target of assay [1] is T1, GST-GRA3_(43-161) (Toxoplasma gondii) (UniProt B6KEU8).
T1 sequence: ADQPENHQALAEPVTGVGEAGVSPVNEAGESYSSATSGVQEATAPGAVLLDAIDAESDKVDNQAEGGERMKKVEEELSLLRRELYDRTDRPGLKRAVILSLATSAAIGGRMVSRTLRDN
The assay can be described thus: pull-down; 60 μg of recombinant GST protein bound to glutathione-Sepharose beads, incubated with pre-cleared lysate of GRA23_3×HA parasites in buffer B for 1 h at room temperature; anti-HA immunoblot; only the target purified. In general terms: In western blotting, separated proteins are transferred to a membrane and probed.

The target of assay [2] is TgROP13_3×HA (Toxoplasma gondii). The assay can be described thus: co-IP; lysate of 50×10^6 tachyzoites of the 3×HA knock-in strains in buffer B (10 mM HEPES pH 7.4, 1.5 mM MgCl2, 10 mM KCl, 0.5 mM DTT, 0.1 mM EDTA, 0.65% NP-40), anti-HA beads overnight at 4°C, immunoblot for TgGRA3.
Assay [3] deals with TgGRA23_3×HA (Toxoplasma gondii). The assay is described as above.
Assay [4] has the same target. In words: co-IP; HFF cells infected for 24 h, low-speed pellet (parasites) and high-speed pellet (PVM) suspended in buffer B as inputs; immunoprecipitation of TgGRA23_3×HA, immunoblot for TgGRA3.

Results are given in words; binding and its absence hold for the method and conditions named. Binding seen in cells or lysates may run through a third protein. For some of these results: Binding can be weak; no strength is given. For some of these results: Where a sequence is shown, tags or fusion partners need not be part of it.

For TgGRA23_3×HA (Toxoplasma gondii), in assay [1], the binding result is given as “binds”.

B1: TgGRA3 (protein, UniProt B6KEU8 1-222)
chain: MDRTICPFFIQSFTMSTALKRLIPFLVPFVVFLVAAALGGLAADQPENHQALAEPVTGVGEAGVSPVNEAGESYSSATSGVQEATAPGAVLLDAIDAESDKVDNQAEGGERMKKVEEELSLLRRELYDRTDRPGLKRAVILSLATSAAIGGRMVSRTLRDNIPGYFVVINAILAAYYIRKVLTYRRRVMTKRQPFMSSVKNFFRRKPKDEGAGVDKASKKQT
For the molecule B1, the binding result in assay [2] is given as “no binding”; in assay [3], “binds”; in assay [4] it was “binds”.
